Source: the supplement of paper PMC10849652
Some of the results follow.

The chains behind the UniProt entries cited, without tags or fusion partners. Where a name states a change or a piece, a line headed by the entry shows the natural chain unless it says otherwise.
UniProt P35712: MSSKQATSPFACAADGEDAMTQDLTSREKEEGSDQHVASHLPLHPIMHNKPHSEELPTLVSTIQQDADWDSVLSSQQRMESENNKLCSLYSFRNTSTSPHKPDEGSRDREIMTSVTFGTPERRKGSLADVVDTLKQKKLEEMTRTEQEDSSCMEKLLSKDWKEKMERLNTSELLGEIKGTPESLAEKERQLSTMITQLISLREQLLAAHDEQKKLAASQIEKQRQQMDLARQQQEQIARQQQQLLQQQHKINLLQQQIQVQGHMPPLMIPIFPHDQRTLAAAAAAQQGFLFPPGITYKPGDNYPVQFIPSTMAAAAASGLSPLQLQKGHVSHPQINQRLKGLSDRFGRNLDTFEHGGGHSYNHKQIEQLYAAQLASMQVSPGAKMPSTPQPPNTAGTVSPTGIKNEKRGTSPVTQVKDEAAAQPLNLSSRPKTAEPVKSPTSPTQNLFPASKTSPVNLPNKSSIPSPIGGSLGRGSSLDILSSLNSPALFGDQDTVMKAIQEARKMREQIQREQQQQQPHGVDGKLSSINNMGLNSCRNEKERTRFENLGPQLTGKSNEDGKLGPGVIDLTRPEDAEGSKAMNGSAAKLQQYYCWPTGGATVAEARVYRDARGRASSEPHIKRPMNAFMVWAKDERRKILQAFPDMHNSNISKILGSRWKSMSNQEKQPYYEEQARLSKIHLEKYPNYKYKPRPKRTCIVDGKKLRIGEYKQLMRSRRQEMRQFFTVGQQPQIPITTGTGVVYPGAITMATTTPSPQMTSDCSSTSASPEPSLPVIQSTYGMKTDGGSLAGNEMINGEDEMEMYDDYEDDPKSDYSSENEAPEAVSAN
UniProt P0DJ93: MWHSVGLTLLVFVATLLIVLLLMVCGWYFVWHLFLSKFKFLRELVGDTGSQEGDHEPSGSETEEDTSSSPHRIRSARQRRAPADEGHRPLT
UniProt Q9Y5W8: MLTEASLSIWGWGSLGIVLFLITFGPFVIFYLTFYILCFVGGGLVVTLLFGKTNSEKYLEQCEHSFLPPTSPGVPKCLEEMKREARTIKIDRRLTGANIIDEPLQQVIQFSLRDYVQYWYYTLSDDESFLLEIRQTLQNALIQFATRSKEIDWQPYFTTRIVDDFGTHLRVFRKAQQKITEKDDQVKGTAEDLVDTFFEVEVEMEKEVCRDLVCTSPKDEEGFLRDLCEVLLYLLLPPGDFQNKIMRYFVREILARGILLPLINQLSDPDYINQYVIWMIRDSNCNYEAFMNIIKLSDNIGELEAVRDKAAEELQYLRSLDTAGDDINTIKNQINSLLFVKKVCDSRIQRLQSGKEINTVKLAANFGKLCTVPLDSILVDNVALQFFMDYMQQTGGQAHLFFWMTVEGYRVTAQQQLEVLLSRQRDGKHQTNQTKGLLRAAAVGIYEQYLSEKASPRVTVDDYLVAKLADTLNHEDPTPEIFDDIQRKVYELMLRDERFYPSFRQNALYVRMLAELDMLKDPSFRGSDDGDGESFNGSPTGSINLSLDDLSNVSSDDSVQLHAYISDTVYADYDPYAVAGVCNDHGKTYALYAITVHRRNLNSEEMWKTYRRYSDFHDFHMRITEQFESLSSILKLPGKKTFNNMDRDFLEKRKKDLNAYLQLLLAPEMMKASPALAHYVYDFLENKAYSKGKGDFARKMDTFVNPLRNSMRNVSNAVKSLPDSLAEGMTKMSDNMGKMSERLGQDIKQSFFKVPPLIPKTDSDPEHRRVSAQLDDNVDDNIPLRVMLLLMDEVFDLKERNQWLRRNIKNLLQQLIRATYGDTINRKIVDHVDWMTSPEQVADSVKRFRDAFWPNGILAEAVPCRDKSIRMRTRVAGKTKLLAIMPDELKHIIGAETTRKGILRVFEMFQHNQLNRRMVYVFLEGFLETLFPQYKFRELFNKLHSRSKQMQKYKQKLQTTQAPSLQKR
UniProt Q96RF0: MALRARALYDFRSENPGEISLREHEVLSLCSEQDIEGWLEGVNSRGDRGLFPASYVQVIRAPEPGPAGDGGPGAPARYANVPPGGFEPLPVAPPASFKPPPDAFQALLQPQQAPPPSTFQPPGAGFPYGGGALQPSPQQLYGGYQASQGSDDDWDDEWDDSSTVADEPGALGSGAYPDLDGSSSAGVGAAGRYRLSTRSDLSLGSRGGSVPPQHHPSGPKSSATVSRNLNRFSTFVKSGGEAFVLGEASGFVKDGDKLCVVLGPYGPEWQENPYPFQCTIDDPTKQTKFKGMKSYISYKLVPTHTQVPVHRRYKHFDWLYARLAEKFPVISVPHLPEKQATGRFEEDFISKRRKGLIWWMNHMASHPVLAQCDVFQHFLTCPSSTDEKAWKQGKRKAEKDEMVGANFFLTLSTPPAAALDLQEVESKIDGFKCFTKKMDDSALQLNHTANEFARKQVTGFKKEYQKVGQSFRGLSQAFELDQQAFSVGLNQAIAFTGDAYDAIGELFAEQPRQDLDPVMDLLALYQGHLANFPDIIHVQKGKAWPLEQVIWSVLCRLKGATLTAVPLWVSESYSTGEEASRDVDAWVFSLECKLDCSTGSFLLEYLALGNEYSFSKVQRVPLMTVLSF
UniProt Q5VWJ9: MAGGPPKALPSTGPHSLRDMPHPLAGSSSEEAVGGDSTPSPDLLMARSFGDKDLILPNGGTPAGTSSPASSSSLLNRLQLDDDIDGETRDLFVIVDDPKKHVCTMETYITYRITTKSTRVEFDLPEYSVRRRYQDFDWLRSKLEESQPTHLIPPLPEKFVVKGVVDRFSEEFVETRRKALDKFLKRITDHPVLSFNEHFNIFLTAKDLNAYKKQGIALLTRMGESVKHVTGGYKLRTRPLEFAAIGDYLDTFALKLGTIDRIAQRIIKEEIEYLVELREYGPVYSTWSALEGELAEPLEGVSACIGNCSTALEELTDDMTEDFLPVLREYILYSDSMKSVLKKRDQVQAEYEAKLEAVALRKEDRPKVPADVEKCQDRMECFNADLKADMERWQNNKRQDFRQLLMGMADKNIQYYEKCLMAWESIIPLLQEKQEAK
UniProt Q6J4K2: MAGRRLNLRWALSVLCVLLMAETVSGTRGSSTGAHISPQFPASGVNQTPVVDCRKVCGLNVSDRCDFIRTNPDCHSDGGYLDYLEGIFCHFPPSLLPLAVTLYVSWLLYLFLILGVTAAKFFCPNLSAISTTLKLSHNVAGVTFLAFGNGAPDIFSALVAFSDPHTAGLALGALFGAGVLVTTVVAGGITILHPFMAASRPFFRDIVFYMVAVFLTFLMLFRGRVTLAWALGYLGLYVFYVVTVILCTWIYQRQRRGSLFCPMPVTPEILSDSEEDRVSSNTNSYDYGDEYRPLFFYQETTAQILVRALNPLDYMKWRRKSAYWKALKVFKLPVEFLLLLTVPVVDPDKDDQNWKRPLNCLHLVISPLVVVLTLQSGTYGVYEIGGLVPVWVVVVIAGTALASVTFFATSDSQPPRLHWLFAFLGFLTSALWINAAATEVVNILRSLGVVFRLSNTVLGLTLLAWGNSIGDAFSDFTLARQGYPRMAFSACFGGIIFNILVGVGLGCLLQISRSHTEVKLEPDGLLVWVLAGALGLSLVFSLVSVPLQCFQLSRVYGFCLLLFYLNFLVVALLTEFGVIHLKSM
UniProt P51531, whole entry, looked up: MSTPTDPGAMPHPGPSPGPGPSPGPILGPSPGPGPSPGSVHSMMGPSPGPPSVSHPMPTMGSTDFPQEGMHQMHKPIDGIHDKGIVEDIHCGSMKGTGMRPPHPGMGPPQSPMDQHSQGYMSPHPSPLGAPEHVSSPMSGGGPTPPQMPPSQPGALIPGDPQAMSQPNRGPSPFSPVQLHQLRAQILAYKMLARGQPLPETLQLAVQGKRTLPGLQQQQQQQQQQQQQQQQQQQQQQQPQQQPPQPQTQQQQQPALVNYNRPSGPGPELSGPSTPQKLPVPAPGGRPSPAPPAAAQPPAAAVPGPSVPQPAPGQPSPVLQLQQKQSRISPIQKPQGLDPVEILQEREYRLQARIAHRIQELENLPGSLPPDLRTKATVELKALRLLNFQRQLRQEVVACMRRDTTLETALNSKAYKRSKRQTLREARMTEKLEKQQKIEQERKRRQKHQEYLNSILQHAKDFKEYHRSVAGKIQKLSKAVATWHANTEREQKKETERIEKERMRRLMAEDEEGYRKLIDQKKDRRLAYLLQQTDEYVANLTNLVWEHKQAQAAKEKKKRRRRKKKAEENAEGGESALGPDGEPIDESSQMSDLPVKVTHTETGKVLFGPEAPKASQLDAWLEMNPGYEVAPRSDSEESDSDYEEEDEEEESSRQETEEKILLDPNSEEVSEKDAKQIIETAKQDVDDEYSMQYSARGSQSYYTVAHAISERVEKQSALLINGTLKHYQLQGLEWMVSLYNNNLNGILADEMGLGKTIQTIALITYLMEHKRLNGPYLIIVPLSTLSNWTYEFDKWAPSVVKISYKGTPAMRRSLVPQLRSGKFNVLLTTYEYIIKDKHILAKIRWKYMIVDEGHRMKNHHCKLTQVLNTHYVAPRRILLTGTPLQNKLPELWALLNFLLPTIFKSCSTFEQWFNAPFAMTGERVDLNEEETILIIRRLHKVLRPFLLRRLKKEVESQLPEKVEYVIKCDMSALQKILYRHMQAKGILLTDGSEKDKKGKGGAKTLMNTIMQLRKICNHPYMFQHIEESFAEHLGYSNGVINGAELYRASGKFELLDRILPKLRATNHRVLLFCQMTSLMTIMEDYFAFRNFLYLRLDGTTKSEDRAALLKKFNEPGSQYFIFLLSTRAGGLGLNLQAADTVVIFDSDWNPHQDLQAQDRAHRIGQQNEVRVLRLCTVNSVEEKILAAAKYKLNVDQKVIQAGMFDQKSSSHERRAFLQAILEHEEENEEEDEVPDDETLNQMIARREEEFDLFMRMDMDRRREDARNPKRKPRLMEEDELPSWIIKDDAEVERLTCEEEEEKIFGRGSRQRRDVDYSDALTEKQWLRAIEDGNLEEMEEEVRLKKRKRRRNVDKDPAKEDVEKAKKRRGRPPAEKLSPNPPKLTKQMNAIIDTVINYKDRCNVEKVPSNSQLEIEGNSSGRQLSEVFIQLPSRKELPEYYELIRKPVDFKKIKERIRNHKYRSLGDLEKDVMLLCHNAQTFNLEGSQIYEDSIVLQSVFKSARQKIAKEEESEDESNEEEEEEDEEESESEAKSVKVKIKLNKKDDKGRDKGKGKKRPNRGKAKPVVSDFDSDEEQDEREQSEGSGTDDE
UniProt O75971: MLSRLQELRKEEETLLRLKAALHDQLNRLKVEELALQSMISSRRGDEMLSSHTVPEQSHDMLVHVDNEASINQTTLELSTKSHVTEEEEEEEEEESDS
UniProt Q86UD5: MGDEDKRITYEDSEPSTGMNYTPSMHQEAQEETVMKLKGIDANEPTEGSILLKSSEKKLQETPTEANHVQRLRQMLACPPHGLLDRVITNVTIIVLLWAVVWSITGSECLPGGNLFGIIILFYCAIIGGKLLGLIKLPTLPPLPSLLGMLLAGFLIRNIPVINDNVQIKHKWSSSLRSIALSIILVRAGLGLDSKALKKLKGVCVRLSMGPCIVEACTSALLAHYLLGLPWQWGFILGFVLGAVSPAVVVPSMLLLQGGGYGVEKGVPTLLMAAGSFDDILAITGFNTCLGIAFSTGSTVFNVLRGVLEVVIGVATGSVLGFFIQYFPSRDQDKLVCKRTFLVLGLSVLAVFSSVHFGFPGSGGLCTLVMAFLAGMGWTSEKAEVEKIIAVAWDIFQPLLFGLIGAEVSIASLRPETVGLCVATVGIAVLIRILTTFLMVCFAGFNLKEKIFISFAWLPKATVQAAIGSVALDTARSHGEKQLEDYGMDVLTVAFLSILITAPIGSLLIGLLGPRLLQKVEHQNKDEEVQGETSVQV
UniProt P0DMW3: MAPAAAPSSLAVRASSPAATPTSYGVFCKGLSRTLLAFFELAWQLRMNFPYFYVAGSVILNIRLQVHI
UniProt P35711: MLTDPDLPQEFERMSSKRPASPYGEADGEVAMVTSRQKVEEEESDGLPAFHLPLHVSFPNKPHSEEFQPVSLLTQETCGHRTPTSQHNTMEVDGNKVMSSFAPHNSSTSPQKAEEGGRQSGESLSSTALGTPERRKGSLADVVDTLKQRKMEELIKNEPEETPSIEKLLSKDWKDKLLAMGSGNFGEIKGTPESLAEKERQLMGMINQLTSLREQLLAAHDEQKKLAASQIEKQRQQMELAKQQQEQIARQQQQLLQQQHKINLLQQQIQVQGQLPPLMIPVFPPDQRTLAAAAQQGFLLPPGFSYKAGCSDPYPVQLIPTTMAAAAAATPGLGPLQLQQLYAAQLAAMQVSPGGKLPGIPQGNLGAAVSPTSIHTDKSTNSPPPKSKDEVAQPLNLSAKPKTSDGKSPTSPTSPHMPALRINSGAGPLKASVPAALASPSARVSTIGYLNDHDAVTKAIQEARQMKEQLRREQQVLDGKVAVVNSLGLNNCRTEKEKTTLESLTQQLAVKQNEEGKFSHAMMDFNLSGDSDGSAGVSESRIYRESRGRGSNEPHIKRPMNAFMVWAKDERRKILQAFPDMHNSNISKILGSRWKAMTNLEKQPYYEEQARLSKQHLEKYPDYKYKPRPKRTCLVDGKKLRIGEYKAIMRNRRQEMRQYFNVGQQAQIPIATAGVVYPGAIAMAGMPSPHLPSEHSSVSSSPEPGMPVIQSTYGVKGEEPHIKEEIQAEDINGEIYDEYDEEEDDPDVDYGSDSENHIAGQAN

Key:
Experiment in all cases: log2 fold change, soluble protein after heating vs DMSO (PISA); higher = thermal stabilisation; K562 cells, 10 uM, 30 min; active = over 0.2 and 3.5 SD of the protein, either way, in both replicates (recomputed)
alvocidib = compound: CN1CC[C@H](c2c(O)cc(O)c3c(=O)cc(-c4ccccc4Cl)oc23)[C@H](O)C1 [alvocidib]
Summary of the method: (§1)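 K562 cells at 2×10^6 cells/mL were treated for 30 min with 10 μM compound, and aliquots were heated for 3 min over 48°C-58°C before pooling. Extraction used PBS with 0.5% NP-40 at 4°C, and soluble protein was the supernatant after 21,000xg for 90 min, measured by TMTpro 16plex LC-MS/MS with channel sums equalised. Thermal stability values, relative to control samples and from duplicates, are log2 fold changes.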

Tubastatin A = compound: CN1CCc2c(c3ccccc3n2Cc2ccc(C(=O)NO)cc2)C1 [Tubastatin A]
Summary of the method: as §1

[1] = compound: CNC(=O)C1=CC=CC=C1NC2=NC(=NC=C2Cl)NC3=C(C=C(C=C3)N4CCOCC4)OC
Summary of the method: as §1

rucaparib = compound: CNCc1ccc(-c2[nH]c3cc(F)cc4c3c2CCNC4=O)cc1 [rucaparib]
Summary of the method: as §1

encorafenib = compound: COC(=O)N[C@@H](C)CNc1nccc(-c2cn(C(C)C)nc2-c2cc(Cl)cc(NS(C)(=O)=O)c2F)n1 [encorafenib]
Summary of the method: as §1

sotrastaurin = compound: CN1CCN(c2nc(C3=C(c4c[nH]c5ccccc45)C(=O)NC3=O)c3ccccc3n2)CC1 [sotrastaurin]
Summary of the method: as §1

defactinib = compound: CNC(=O)c1ccc(Nc2ncc(C(F)(F)F)c(NCc3nccnc3N(C)S(C)(=O)=O)n2)cc1 [defactinib]
Summary of the method: as §1

[2] = compound: COC(=O)[C@H](CCSC)NC(=O)C1=C(C=C(C=C1)NC[C@H](CS)N)C2=CC=CC=C2
Summary of the method: as §1

saracatinib = compound: CN1CCN(CCOc2cc(OC3CCOCC3)c3c(Nc4c(Cl)ccc5c4OCO5)ncnc3c2)CC1 [saracatinib]
Summary of the method: as §1

[3] = compound: CNc1nc(-c2ccc3c(N)n[nH]c3c2)cc(N2C[C@@H](C(=O)NC3CCCCC3)CC[C@H]2C)n1
Summary of the method: as §1

Measured: log2 fold change

SMARCD2 (UniProt Q92925)
inactive: alvocidib -0.4 | Tubastatin A 0.128 | [1] -0.185 | rucaparib 0.328 | encorafenib 0.323

SMTN isoform 6 (UniProt P53814)
inactive: sotrastaurin -0.011 | Tubastatin A 0.014 | [1] -0.158 | defactinib 0.097 | [2] -0.005

SLCO4A1 (UniProt Q96BD0)
inactive: sotrastaurin 0.066 | alvocidib -0.107 | Tubastatin A -0.069 | [1] 0.091 | defactinib -0.169 | rucaparib -0.124 | encorafenib 0.211 | [2] 0.042

SOX6 (UniProt P35712)
inactive: alvocidib -0.107 | defactinib 0.059 | [2] 0.029

SNX27 (UniProt Q96L92)
inactive: saracatinib -0.134 | alvocidib 0.059 | Tubastatin A -0.062 | [1] 0.09 | defactinib 0.021 | rucaparib 0.258 | [3] 0.179 | encorafenib 0.307 | [2] -0.096

SNRK (UniProt Q9NRH2)
inactive: saracatinib -0.092 | sotrastaurin 0.003 | rucaparib -0.099 | [3] 0.011 | encorafenib 0.002

SMPD4 isoform 2 (UniProt Q9NXE4)
inactive: saracatinib 0.028 | Tubastatin A -0.054 | defactinib 0.094 | [3] 0.02 | [2] -0.19

SMIM13 (UniProt P0DJ93)
inactive: sotrastaurin 0.157 | rucaparib 0.02 | encorafenib -0.083

SNX19 (UniProt Q92543)
inactive: sotrastaurin -0.149 | [1] 0.163 | rucaparib 0.075 | encorafenib 0.027

SOX7 isoform 2 (UniProt Q9BT81)
inactive: saracatinib -0.039 | alvocidib 0.34 | Tubastatin A 0.176 | [1] 0.451 | defactinib 0.303 | [3] 0.167 | [2] 0.054

SNX13 (UniProt Q9Y5W8)
inactive: saracatinib 0.005 | sotrastaurin 0.186 | [1] -0.042 | [3] -0.003

2 entries drawn at random from the list so far:
SMIM13 (UniProt P0DJ93)
inactive: sotrastaurin 0.157 | rucaparib 0.02 | encorafenib -0.083

SMPD4 isoform 2 (UniProt Q9NXE4)
inactive: saracatinib 0.028 | Tubastatin A -0.054 | defactinib 0.094 | [3] 0.02 | [2] -0.19

Next part:

SMPD1 (UniProt P17405)
inactive: saracatinib -0.061 | sotrastaurin -0.176 | defactinib -0.026 | [3] 0.022 | [2] 0.01

SPAG9 isoform 4 (UniProt O60271)
inactive: sotrastaurin -0.171 | Tubastatin A -0.103 | [1] 0.081 | defactinib 0.018 | rucaparib 0.113 | encorafenib 0.022 | [2] 0.088

SNX18 (UniProt Q96RF0)
inactive: sotrastaurin 0.089 | [1] -0.017

SNX30 (UniProt Q5VWJ9)
inactive: sotrastaurin 0.047

SLC8B1 (UniProt Q6J4K2)
inactive: saracatinib 0.036 | [1] -0.019 | defactinib 0.029 | [3] -0.176 | [2] -0.028

SORBS3 (UniProt O60504)
inactive: [1] 0.014

SMARCA2 (UniProt P51531)
inactive: [1] 0.002 | rucaparib -0.03 | encorafenib -0.106

SLC9A6 isoform 3 (UniProt Q92581)
inactive: saracatinib 0.128 | Tubastatin A 0.04 | [1] 0.104 | rucaparib 0.165 | [3] -0.107 | encorafenib -0.162

SMU1 isoform 2 (UniProt Q2TAY7)
inactive: rucaparib -0.184 | encorafenib -0.265

SNAPC5 (UniProt O75971)
inactive: saracatinib 0 | Tubastatin A 0.091 | [1] -0.073 | defactinib -0.048 | [3] 0.018 | [2] -0.016

SMAD3 (UniProt P84022)
inactive: saracatinib 0.082 | alvocidib 0.021 | Tubastatin A 0.092 | defactinib -0.187 | [3] 0.078 | [2] 0.119

SP2 (UniProt Q02086)
inactive: saracatinib 0.09 | sotrastaurin 0.091 | rucaparib 0.324 | [3] -0.132 | encorafenib -0.025

SNRPD2 (UniProt K7EJB5)
inactive: saracatinib -0.109 | alvocidib 0.078 | Tubastatin A 0 | defactinib 0.08 | rucaparib -0.04 | [3] -0.051 | encorafenib -0.056 | [2] 0.02

SNX25 (UniProt Q9H3E2)
inactive: saracatinib 0.036 | sotrastaurin 0.15 | [1] -0.154 | [3] 0.055

SP4 (UniProt Q02446)
inactive: Tubastatin A 0.015 | rucaparib 0.026 | encorafenib -0.013

SNAP47 (UniProt Q5SQN1)
inactive: [1] -0.063 | defactinib -0.044 | [2] -0.145

SMARCAL1 (UniProt Q9NZC9)
inactive: [1] -0.043 | defactinib -0.126 | [2] -0.085

SLC9B2 (UniProt Q86UD5)
inactive: defactinib 0.239 | [2] 0.016

SMIM19 (UniProt Q96E16)
inactive: saracatinib -0.07 | Tubastatin A -0.019 | defactinib -0.087 | rucaparib -0.301 | [3] -0.136 | encorafenib -0.238 | [2] 0.142

SMIM10L1 (UniProt P0DMW3)
inactive: [1] 0.097

SMUG1 (UniProt Q53HV7)
inactive: sotrastaurin -0.098 | rucaparib 0.047 | encorafenib 0.163

SNRPN isoform 2 (UniProt P63162)
inactive: rucaparib 0.056 | encorafenib -0.284

SNX4 (UniProt O95219)
inactive: alvocidib 0.097

SMARCD1 (UniProt Q96GM5)
inactive: [1] -0.087

SMPDL3A (UniProt Q92484)
inactive: saracatinib -0.175 | Tubastatin A -0.242 | [3] -0.106

SOS1 (UniProt Q07889)
inactive: sotrastaurin -0.168 | Tubastatin A 0.095 | [1] 0.014 | rucaparib -0.139 | encorafenib -0.005

SNX2 isoform 2 (UniProt O60749)
inactive: saracatinib -0.002 | sotrastaurin 0.003 | defactinib -0.155 | rucaparib 0.024 | [3] 0.176 | encorafenib -0.141 | [2] 0.097

SOX5 (UniProt P35711)
inactive: sotrastaurin -0.014 | Tubastatin A 0.263 | [1] -0.053 | defactinib -0.224 | [2] 0.064
